# Over roughly 33,000 sequences, “E-score (-0.5 to 0.5)” has its median near -0.0059; the highest 2% begin near 0.26. Some of the results follow.
# Molecular target: T1, Cin5 (UniProt P40917)
# T1 sequence: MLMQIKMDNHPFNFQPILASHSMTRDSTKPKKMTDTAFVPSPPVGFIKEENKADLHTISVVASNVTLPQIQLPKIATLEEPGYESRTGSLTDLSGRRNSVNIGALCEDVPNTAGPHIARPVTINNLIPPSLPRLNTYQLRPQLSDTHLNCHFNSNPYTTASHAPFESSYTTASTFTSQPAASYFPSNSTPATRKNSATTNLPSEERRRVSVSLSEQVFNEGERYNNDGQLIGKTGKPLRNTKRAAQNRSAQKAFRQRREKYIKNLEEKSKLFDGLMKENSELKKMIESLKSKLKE
# Assay: PBM E-score (8-mer binding enrichment) (E-score (-0.5 to 0.5)); higher = stronger / more preferred TF binding
# Details: protein concentration: 100 nM; construct: GST-full length
# Procedure, shortened: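 Each ungapped eight-base word and its reverse complement, pooled, received an E-score from the Universal PBM Analysis Suite. Underlying scans, normalised with masliner, recorded fluorescent anti-GST bound to GST-tagged yeast transcription factors. These were applied at about 100-200 nM to universal all-10-mer Agilent arrays double-stranded by primer extension.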
row,Sequence,PBM E-score
1,AATTCCGC,0.133
2,AAAAGCAT,0.0882
3,CAAGGATC,0.0191
4,CCCGGCAG,-0.0204
5,ATGCGTGG,-0.185
6,ACTAGATC,-0.0649
7,GACCTCGA,0.0396
8,ACCTAACG,-0.1
9,ATCCGTGA,0.00318
10,ATCTAAGG,0.115
11,TTGAACAA,-0.0331
12,AAAGTGTA,0.089
13,TCGCTTAA,0.124
14,AGACCGTA,-0.284
15,ATGACGCG,0.138
16,CTCACTTA,0.0594
17,CACGTGGA,0.0737
18,AACTGTCC,-0.091
19,CGCCCTAG,-0.174
20,TGATTGAA,0.172
21,CTCGTAAA,-0.0596
22,CATGTTTC,0.206

row,Sequence,PBM E-score
1,ATTTATCA,0.209
2,AGGCCCGA,-0.13
3,ACGAAAGA,0.107
4,GGACTCAA,-0.172
5,ATAACGAG,-0.00418
6,GGAACGCA,-0.0875
7,CACTTAGA,0.0661
8,CGTTACAA,0.0849
9,GTAACAGA,0.106
10,CCCGCGAC,-0.193
11,AGTTAGCG,0.182
12,CAAGCCCC,-0.209
13,GAGCGGCA,-0.145
14,ATATAAAT,0.28
15,CAGTGACA,-0.0532
16,AACCCAAA,0.0922
17,ACTAGCTG,0.0183
18,ATAGAGAG,-0.2
19,TGTTGCAA,0.18
20,TATGAGCA,-0.101
21,GGTATACC,-0.0512
22,CACCGAGC,-0.0593

# Part of the list above, reformatted.
row | Sequence | PBM E-score
1 | ATTTATCA | 0.209
2 | AGGCCCGA | -0.13
3 | ACGAAAGA | 0.107
4 | GGACTCAA | -0.172
8 | CGTTACAA | 0.0849
9 | GTAACAGA | 0.106
10 | CCCGCGAC | -0.193
11 | AGTTAGCG | 0.182
12 | CAAGCCCC | -0.209
14 | ATATAAAT | 0.28
18 | ATAGAGAG | -0.2
19 | TGTTGCAA | 0.18
20 | TATGAGCA | -0.101
21 | GGTATACC | -0.0512
22 | CACCGAGC | -0.0593

# Further records.

row,Sequence,PBM E-score
1,CCATGCAC,-0.152
2,GGGGACCA,-0.151
3,AGTGTTCC,-0.0301
4,ACTTTTCC,0.237
5,CGTTATTC,-0.0422
6,GCTGAGAA,-0.0505
7,AGCATGTA,0.0616
8,CTTATGAC,0.0887
9,GAATTCGA,0.0262
10,AATCCTGT,0.0812
11,CAAGCTCA,-0.168
12,AGCGGTGG,-0.128
13,CGATTATA,0.138
14,AAGTCCTC,-0.131
15,AAAGCGGC,0.0759
16,CGAAGTTA,0.161
17,CTCTCTTA,0.00883
18,AGTGCTCA,-0.185
19,ACTTTAAA,0.14
20,AGACGTGG,-0.0786
21,CGAATAAC,0.157
22,ACCGAGGT,-0.138

row,Sequence,PBM E-score
1,GAGCCAGC,-0.272
2,GTGTTCAA,-0.0233
3,CCTCACCG,-0.182
4,CCCCCGAC,-0.315
5,CTAGGTAA,0.0544
6,TAACTCGA,0.148
7,AACTTGTC,0.0383
8,CAGTAGCG,-0.0667
9,ACCGCTAG,-0.0932
10,AAACGAGG,-0.108
11,ACACGTGA,0.14
12,TATATTAA,0.287
13,ACTGCGAC,-0.0354
14,CACCTGCC,0.045
15,AGATGTAT,0.189
16,ACAGAATC,-0.0255
17,AAAGGAGT,0.0979
18,ACCTGGTG,-0.185
19,GGTCCAAC,-0.147
20,AATCGCGG,0.0556
